{
  "source": "patent US20110269721A1",
  "about": "“METHODS OF TREATING THALASSEMIA” (TargeGen, Inc., priority 2008, published 2011)",
  "test_system": "purified erythroid cells isolated from the spleens of normal and thalassemic mice",
  "assay": "Primary splenic erythroid cell cultures with CFSE staining (cell proliferation)",
  "format": "cell-based, mouse",
  "settings": "AG490 100 uM, FIG. 2A",
  "description": "Spleens from […] were harvested and mechanically dissociated into single cell suspensions. Murine mononuclear cells were then isolated by centrifugation using Lympholyte-M density gradients (Cedarlane Laboratories Ltd, Westbury, N.Y.) following the manufacturer's instructions. Cells were incubated on ice for 15 minutes with a cocktail containing 10 μg each of non-erythroid FITCconjugated antibodies (GR-1, MAC1, CD4, CD8, CD11b, and CD49) (BD PharMingen). After washing, the cells were incubated for 15 minutes at 4° C. with anti-FITC microbeads (Miltenyi Biotech, Auburn, Calif.). The cell suspension was placed on a magnetic column and the eluted erythroid cells were kept for RNA extraction, protein analysis, in vitro culture with carboxy-fluorescein diacetate succinimidyl ester (CFSE; MolecularProbes, Eugene, Oreg.) staining or flow cytometric analysis. CFSE was added to the cells to give a final concentration of 1.25 uM. After 10 minutes at 37° C., further dye uptake was prevented by addition of 5 volumes of cold medium and incubated in ice for 5 minutes. […] Thus, it is possible to determine if cells are dividing by monitoring the reduction of CFSE fluorescence (FIG. 2A).",
  "data": [
    {"smiles": "CN[C@H]1CCc2cc(OC)c(OC)c(OC)c2-c2ccc(OC)c(=O)cc21", "note": "[colcemid]", "values": [
      {"measurement": "effect on cell proliferation of erythroid cultures (CFSE)", "result": "blocking cell proliferation"}
    ]}
  ]
}
